The record followed here is article doi:10.1101/2021.10.14.464355.

The chains behind the UniProt entries cited, without tags or fusion partners. Where a name states a change or a piece, a line headed by the entry shows the natural chain unless it says otherwise.
UniProt Q9NQB0: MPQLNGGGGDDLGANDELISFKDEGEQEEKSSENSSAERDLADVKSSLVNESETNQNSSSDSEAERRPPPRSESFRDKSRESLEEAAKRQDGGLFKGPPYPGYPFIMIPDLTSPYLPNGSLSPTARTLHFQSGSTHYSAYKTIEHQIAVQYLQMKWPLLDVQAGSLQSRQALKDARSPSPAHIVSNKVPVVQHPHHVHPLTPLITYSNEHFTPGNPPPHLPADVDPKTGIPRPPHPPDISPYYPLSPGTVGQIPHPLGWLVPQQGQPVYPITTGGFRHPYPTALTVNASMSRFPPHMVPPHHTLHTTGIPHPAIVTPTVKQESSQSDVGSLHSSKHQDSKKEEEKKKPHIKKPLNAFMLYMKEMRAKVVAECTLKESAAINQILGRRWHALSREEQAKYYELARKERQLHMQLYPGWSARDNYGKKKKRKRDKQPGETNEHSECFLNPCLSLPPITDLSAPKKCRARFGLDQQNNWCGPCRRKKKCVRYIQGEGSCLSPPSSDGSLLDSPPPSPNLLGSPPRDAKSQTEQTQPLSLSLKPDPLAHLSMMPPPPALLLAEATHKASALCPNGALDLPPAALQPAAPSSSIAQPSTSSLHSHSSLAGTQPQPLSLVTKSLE
UniProt P40337: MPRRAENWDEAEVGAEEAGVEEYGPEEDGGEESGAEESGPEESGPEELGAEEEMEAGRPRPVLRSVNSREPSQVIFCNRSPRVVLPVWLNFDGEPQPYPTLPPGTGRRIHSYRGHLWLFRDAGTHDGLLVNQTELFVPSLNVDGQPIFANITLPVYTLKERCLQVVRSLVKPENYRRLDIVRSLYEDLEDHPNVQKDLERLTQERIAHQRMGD

This experiment has as its target TCF7L2Δ(63-410) (UniProt Q9NQB0). Put plainly: co-IP.

These are yes or no findings as the source states them, for the method shown. In cells and extracts the contact can be indirect.

Take “pVHL (in the co-IP that maps the TCF7L2 domains) (from UniProt P40337 1-213)”: the binding result is reported as “no binding”.
